PMC9130538, “Amino acids in transmembrane helix 1 confer major functional differences between human and mouse orthologs of the polyspecific membrane transporter OCT1” (The Journal of Biological Chemistry, 2022)

Tests used:
human OCT1 = biological target: T1, human OCT1 (Homo sapiens, UniProt O15245); experiment: Cellular uptake by HEK293 cells overexpressing human OCT1 (wildtype)
T1 sequence (O15245 1-554): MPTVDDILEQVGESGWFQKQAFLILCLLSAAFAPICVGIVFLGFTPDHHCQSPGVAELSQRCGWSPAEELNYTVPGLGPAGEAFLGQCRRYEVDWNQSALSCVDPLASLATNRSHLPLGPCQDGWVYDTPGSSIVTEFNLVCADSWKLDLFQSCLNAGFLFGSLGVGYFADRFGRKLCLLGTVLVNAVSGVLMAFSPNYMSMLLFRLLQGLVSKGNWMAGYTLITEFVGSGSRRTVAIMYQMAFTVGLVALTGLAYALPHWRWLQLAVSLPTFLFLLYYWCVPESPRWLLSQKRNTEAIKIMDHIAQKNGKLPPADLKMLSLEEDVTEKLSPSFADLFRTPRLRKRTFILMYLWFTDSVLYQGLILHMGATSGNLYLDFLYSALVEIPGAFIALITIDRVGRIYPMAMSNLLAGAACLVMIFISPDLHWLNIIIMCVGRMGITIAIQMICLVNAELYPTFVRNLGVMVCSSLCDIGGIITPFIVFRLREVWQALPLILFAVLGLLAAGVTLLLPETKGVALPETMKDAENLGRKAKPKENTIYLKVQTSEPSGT
Description: (§1) Generation and characterization of these cell lines has been described in detail before ([34], [48], [49]). Cells were cultured in Dulbecco’s Modified Eagle’s Medium supplemented with 10% fetal bovine serum, 100 U/ml penicillin, and 100 μg/ml streptomycin at 37 °C and 5% CO2 and were passaged twice a week.
(§2) At 48 h prior to the experiment, 6 × 10^5 cells were seeded per well in 12-well plates. When using transiently transfected cells, 5 × 10^5 T-REx-293 cells (Life Technologies) were seeded per well in 12-well plates 72 h prior to the experiment, and they were transfected 24 h later as described previously. Twelve-well plates were precoated with poly-D-lysine.
(§3) Cellular uptake experiments were performed at 37 °C and pH 7.4 using HBSS supplemented with 10 mM Hepes (in the following referred to as HBSS+). […] Cells were washed twice with 2 ml ice-cold HBSS+ and lysed with 80% acetonitrile supplemented with internal standard, 0.1 N NaOH/0.1% SDS, or radioimmunoprecipitation buffer for LC–MS/MS, liquid scintillation counting, or fluorescence spectroscopy detection, respectively. Intracellular substrate concentrations were measured as described in the following and were then normalized to the amount of total protein in the samples as measured using the bicinchoninic acid assay ([51]). […]

mouse Oct1 = biological target: T2, mouse Oct1 (Mus musculus, UniProt O08966); experiment: Cellular uptake by HEK293 cells overexpressing mouse Oct1 (wildtype)
T2 sequence (O08966 1-556): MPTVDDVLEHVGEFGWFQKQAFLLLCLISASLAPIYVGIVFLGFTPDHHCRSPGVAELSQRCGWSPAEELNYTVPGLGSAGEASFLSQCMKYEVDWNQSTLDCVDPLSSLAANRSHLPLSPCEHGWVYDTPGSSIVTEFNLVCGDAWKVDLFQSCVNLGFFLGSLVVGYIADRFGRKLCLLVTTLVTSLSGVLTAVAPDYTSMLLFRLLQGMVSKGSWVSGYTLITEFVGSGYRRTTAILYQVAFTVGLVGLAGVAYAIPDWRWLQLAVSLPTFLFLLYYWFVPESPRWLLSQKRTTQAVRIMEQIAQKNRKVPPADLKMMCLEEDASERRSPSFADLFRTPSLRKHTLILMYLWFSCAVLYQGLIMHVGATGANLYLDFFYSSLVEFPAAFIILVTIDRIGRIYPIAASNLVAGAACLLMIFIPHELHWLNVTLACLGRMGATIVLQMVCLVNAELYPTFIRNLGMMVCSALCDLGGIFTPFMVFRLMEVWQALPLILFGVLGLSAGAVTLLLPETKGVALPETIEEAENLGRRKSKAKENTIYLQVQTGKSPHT
Description: as §1, §2, §3

[1] = HEK293 stably transfected, 2 min uptake, 37 °C, pH 7.4, OCT1-mediated uptake

`CC(C)[N+]1(C)[C@@H]2CC[C@H]1C[C@@H](OC(=O)C(CO)c1ccccc1)C2` (stereo partly shown) [Ipratropium] was tested, and the “vmax ± SD, hOCT1” value (human OCT1; [1]) was 349 ± 53.9 pmol × min^−1 × mg protein^−1, the “CLint ± SD, hOCT1” value (human OCT1; human, pH 7.4) was 32.5 ± 3.06 μl × min^−1 × mg protein^−1 and the “vmax ± SD, mOct1” value (mouse Oct1; [1]) was 192.9 ± 13.1 pmol × min^−1 × mg protein^−1. The “CLint ± SD, mOct1” value (mouse Oct1; mouse, pH 7.4) was 33.8 ± 10.3 μl × min^−1 × mg protein^−1.
